Patent US12006503B2, “Fusion proteins and methods thereof” (The Trustees of Columbia University in the City of New York, priority 2012, dated 2024)
Some results were stated once for a whole list of compounds, not compound by compound.

Tested on: Rat1A cells and Ink4A;Arf-/- astrocytes
Assay: Premature sister chromatid separation (PMSCS) in metaphase spreads
Format: cell-based
Text: Correction of premature sister chromatid separation (PMSCS) by PD173470 in cells expressing FGFR3-TACC3. Panels show representative metaphase spreads. DNA was stained by DAPI.
Left, panels show representative metaphase spreads. Right, quantitative analysis of metaphases with loss of sister chromatid cohesion. The number of mitosis with PMSCS in Ink4A; Arf−/− astrocytes was scored in at least 100 methaphases for each condition in three independent experiments. The number of mitosis with PMSCS was scored in triplicate samples of Rat1A cells. FIG. 13D is a graph showing nocodazole was added for the indicated durations to Rat1A-H2B-GFP cells transduced with the specified lentiviruses. The mitotic index at each time point was determined by quantitating the H2B-GFP-positive cells in mitosis at each time point. Data are presented as average and standard deviation (n=3).
Karyotype analysis. Cultured cells were colcemid (20 ng/ml) treated for 90 minutes before harvesting for karyotopic analysis as detailed in Extended Experimental procedures. At least one hundred cells in metaphase were examined for chromosome count. PMSCS was scored in cells where a majority of the sister chromosomes were no longer associated. Two-tailed unpaired t-tests with Welch's correction were performed for comparison of means analysis.

B1: FGFR3: wild type FGFR3 expressed by lentivirus (protein, listed as Homo sapiens)
chain: MGAPACALALCVAVAIVAGASSESLGTEQRVVGRAAEVPGPEPGQQEQLVFGSGDAVELSCPPPGGGPMGPTVWVKDGTGLVPSERVLVGPQRLQVLNASHEDSGAYSCRQRLTQRVLCHFSVRVTDAPSSGDDEDGEDEAEDTGVDTGAPYWTRPERMDKKLLAVPAANTVRFRCPAAGNPTPSISWLKNGREFRGEHRIGGIKLRHQQWSLVMESVVPSDRGNYTCVVENKFGSIRQTYTLDVLERSPHRPILQAGLPANQTAVLGSDVEFHCKVYSDAQPHIQWLKHVEVNGSKVGPDGTPYVTVLKTAGANTTDKELEVLSLHNVTFEDAGEYTCLAGNSIGFSHHSAWLVVLPAEEELVEADEAGSVYAGILSYGVGFFLFILVVAAVTLCRLRSPPKKGLGSPTVHKISRFPLKRQVSLESNASMSSNTPLVRIARLSSGEGPTLANVSELELPADPKWELSRARLTLGKPLGEGCFGQVVMAEAIGIDKDRAAKPVTVAVKMLKDDATDKDLSDLVSEMEMMKMIGKHKNIINLLGACTQGGPLYVLVEYAAKGNLREFLRARRPPGLDYSFDTCKPPEEQLTFKDLVSCAYQVARGMEYLASQKCIHRDLAARNVLVTEDNVMKIADFGLARDVHNLDYYKKTTNGRLPVKWMAPEALFDRVYTHQSDVWSFGVLLWEIFTLGGSPYPGIPVEELFKLLKEGHRMDKPANCTHDLYMIMRECWHAAPSQRPTFKQLVEDLDRVLTVTSTDEYLDLSAPFEQYSPGGQDTPSSSSSGDDSVFAHDLLPPAPPSSGGSRT
cells with prematurely separated sister chromatids: less than 3%
